The source of these data is paper PMC4014440.

The chains behind the UniProt entries cited, without tags or fusion partners.
UniProt Q17551: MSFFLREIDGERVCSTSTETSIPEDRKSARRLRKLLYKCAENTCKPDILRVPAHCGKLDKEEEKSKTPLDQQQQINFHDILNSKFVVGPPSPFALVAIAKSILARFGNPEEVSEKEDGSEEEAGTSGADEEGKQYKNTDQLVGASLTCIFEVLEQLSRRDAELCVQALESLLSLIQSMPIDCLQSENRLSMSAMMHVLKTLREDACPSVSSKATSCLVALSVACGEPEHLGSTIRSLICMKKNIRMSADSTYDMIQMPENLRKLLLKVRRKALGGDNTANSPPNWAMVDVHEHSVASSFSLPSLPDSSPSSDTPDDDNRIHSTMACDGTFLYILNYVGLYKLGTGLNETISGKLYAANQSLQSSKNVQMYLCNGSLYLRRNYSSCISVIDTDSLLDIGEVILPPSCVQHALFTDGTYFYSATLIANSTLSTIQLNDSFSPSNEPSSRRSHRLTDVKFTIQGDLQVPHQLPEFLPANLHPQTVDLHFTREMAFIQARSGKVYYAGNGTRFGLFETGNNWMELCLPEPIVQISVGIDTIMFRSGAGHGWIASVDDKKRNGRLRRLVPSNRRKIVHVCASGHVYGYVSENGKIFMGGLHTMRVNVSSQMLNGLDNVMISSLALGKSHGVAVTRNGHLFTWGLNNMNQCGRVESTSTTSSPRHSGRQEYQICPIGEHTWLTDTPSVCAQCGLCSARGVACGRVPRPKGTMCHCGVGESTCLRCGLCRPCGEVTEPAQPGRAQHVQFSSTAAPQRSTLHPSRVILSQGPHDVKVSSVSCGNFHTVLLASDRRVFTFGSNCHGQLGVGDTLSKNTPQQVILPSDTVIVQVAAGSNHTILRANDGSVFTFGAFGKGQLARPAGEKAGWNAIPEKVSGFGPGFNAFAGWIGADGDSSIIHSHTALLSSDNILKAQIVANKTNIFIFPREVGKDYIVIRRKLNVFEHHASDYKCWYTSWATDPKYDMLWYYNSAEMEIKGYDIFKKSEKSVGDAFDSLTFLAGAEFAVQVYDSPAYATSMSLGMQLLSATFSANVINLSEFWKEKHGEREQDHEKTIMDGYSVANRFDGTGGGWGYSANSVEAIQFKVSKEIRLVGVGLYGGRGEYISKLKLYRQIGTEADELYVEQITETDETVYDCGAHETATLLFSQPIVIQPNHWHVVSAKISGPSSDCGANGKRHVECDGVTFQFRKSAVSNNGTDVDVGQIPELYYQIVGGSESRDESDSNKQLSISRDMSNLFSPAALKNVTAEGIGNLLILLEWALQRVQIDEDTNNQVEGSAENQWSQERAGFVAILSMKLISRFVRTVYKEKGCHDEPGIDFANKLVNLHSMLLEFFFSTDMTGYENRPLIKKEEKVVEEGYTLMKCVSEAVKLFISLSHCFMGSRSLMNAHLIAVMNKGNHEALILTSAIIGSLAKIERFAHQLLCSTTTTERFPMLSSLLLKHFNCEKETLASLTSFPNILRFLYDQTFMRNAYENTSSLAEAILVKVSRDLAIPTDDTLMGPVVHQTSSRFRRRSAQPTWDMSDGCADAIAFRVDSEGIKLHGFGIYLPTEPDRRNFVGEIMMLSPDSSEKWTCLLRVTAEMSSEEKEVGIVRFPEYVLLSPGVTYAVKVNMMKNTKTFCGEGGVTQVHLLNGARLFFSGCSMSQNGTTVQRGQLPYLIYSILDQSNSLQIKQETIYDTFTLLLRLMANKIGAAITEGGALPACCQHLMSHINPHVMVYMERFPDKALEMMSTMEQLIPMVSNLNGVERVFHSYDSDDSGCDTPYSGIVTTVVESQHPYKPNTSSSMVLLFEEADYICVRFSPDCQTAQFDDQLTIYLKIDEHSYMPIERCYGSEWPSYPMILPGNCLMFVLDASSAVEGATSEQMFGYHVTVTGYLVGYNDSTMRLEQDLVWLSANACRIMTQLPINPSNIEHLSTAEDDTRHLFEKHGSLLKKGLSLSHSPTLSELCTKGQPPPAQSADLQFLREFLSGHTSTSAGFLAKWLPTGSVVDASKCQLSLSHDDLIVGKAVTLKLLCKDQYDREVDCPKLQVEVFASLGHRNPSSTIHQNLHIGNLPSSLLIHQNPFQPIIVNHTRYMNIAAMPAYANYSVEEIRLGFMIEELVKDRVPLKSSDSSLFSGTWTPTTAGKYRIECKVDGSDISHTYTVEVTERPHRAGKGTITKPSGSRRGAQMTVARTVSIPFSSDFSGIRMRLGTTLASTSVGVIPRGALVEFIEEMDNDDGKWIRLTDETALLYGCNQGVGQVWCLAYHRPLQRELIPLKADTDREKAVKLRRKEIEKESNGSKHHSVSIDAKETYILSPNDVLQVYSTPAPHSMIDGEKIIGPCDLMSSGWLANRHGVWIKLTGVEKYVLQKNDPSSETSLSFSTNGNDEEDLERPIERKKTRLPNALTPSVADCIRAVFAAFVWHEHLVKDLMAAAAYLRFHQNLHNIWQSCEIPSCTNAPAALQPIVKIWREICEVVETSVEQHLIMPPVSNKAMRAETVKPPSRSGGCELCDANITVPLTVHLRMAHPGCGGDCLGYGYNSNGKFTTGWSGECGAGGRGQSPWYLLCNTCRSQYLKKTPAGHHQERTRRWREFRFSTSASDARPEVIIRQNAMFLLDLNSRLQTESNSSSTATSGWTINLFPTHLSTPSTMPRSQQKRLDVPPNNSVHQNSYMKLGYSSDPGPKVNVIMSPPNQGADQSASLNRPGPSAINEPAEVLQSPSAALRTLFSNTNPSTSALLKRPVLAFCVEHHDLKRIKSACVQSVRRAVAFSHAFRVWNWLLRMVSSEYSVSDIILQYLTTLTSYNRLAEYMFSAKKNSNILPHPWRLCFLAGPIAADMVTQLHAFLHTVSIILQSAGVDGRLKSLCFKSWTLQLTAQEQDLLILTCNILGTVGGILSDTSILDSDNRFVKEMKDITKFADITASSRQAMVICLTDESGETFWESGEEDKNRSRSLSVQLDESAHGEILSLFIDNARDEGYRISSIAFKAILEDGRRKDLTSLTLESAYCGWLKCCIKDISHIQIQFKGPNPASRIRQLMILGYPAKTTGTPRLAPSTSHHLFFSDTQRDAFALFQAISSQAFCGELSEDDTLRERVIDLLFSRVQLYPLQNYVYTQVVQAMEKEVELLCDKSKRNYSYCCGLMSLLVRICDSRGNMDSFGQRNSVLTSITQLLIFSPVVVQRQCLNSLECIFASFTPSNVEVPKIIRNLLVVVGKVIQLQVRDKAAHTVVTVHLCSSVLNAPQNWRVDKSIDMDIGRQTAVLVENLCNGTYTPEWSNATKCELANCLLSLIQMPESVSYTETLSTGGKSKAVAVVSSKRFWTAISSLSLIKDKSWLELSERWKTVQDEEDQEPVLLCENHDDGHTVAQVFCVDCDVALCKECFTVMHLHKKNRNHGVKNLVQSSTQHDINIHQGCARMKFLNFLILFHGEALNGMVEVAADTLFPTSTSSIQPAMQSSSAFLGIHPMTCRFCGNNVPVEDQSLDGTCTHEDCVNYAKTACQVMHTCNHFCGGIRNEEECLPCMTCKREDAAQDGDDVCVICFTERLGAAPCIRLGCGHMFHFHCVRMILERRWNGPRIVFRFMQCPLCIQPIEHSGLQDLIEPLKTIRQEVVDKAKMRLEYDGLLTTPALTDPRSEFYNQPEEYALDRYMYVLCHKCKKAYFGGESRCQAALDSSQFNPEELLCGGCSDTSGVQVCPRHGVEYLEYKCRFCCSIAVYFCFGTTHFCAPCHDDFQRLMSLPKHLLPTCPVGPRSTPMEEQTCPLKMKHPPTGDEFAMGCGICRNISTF

For the assay, the target named is RPM-1::GFP (fusion protein of Regulator of Presynaptic Morphology 1 and GFP) (C. elegans) (UniProt Q17551). Briefly: affinity purification with mass spectrometry; RPM-1::GFP immunoprecipitated with anti-GFP antibody (3E6) from whole worm lysates (0.1% NP-40 lysis buffer, 10 mM Tris pH 7.4, 150 mM NaCl, 1 mM DTT); coprecipitating proteins identified by LC-MS/MS.

Results are given in words; binding and its absence hold for the method and conditions named. Binding seen in cells or lysates may run through a third protein. These calls come from enrichment with a bait or labelling near it, and not all partners need be listed.

B1: Protein Phosphatase Magnesium/Manganese dependent 2 (PPM-2), endogenous (enzyme, UniProt P49596 1-356)
chain: MGQTLSEPVTKKESASCANENYLVGSSCMQGWRVDMEDAHTHLLSLPDDPKCAFFAVYDGHGGSKVSQYSGINLHKKVVAQKEFSEGNMKEAIEKGFLELDQQMRVDEETKDDVSGTTAVVVLIKEGDVYCGNAGDSRAVSSVVGEARPLSFDHKPSHETEARRIIAAGGWVEFNRVNGNLALSRALGDFAFKNCDTKPAEEQIVTAFPDVITDKLTPDHEFIVLACDGIWDVMTNQEVVDFVREKLAEKRDPQSICEELLTRCLAPDCQMGGLGCDNMTVVLVGLLHGQSPDTLFTKCARPAVFTGVNNEDGDQNQIQQDISRVINNFDGEQRVNAANQEEEEDDNEPAPANFQV
modifications: N-myristoylation of glycine 2 (detected on a PPM-2 peptide by mass spectrometry)
For B1, the binding entry is recorded as “binds”.
